Laboratory results reported in patent US20060257938A1, “Method of screening for drugs that block ligand binding to a lipid binding protein” (priority 2005, published 2006).

B1: 38W1, 72A (protein, listed as Rattus norvegicus)
chain: AFDGTWKVDRNENYEKFMEKMGINVVKRKLGAHDNLKWTITQEGNKFTVKESSNFRNIDVVFELGVDFAYSAADGTELTGTWTMEGNKLVGKFKRVDNGKELIAVREISGNELIQTYTYEGVEAKRIFKKE
modifications: PEPTIDE (1)...(131) wild-type rat intestinal fatty acid binding protein
B2: 38Y1, 72A (protein, listed as Rattus norvegicus)
chain: AFDGTWKVDRNENYEKFMEKMGINVVKRKLGAHDNLKYTITQEGNKFTVKESSNFRNIDVVFELGVDFAYSAADGTELTGTWTMEGNKLVGKFKRVDNGKELIAVREISGNELIQTYTYEGVEAKRIFKKE
modifications: PEPTIDE (1)...(131) wild-type rat intestinal fatty acid binding protein
B3: 40F2, L72A (protein, listed as Rattus norvegicus)
chain: AFDGTWKVDRNENYEKFMEKMGINVVKRKLGAHDNLKLTFTQEGNKFTVKESSNFRNIDVVFELGVDFAYSAADGTELTGTWTMEGNKLVGKFKRVDNGKELIAVREISGNELIQTYTYEGVEAKRIFKKE
modifications: PEPTIDE (1)...(131) wild-type rat intestinal fatty acid binding protein
B4: 40V1, L72A (protein, listed as Rattus norvegicus)
chain: AFDGTWKVDRNENYEKFMEKMGINVVKRKLGAHDNLKLTVTQEGNKFTVKESSNFRNIDVVFELGVDFAYSAADGTELTGTWTMEGNKLVGKFKRVDNGKELIAVREISGNELIQTYTYEGVEAKRIFKKE
modifications: PEPTIDE (1)...(131) wild-type rat intestinal fatty acid binding protein
B5: 40Y3, L72A (protein, listed as Rattus norvegicus)
chain: AFDGTWKVDRNENYEKFMEKMGINVVKRKLGAHDNLKLTYTQEGNKFTVKESSNFRNIDVVFELGVDFAYSAADGTELTGTWTMEGNKLVGKFKRVDNGKELIAVREISGNELIQTYTYEGVEAKRIFKKE
modifications: PEPTIDE (1)...(131) wild-type rat intestinal fatty acid binding protein
B6: 47A1, L72A (protein, listed as Rattus norvegicus)
chain: AFDGTWKVDRNENYEKFMEKMGINVVKRKLGAHDNLKLTITQEGNKATVKESSNFRNIDVVFELGVDFAYSAADGTELTGTWTMEGNKLVGKFKRVDNGKELIAVREISGNELIQTYTYEGVEAKRIFKKE
modifications: PEPTIDE (1)...(131) wild-type rat intestinal fatty acid binding protein
B7: 47C3, L72A (protein, listed as Rattus norvegicus)
chain: AFDGTWKVDRNENYEKFMEKMGINVVKRKLGAHDNLKLTITQEGNKCTVKESSNFRNIDVVFELGVDFAYSAADGTELTGTWTMEGNKLVGKFKRVDNGKELIAVREISGNELIQTYTYEGVEAKRIFKKE
modifications: PEPTIDE (1)...(131) wild-type rat intestinal fatty acid binding protein
B8: 47E3, L72A (protein, listed as Rattus norvegicus)
chain: AFDGTWKVDRNENYEKFMEKMGINVVKRKLGAHDNLKLTITQEGNKETVKESSNFRNIDVVFELGVDFAYSAADGTELTGTWTMEGNKLVGKFKRVDNGKELIAVREISGNELIQTYTYEGVEAKRIFKKE
modifications: PEPTIDE (1)...(131) wild-type rat intestinal fatty acid binding protein
B9: 47H1, L72A (protein, listed as Rattus norvegicus)
chain: AFDGTWKVDRNENYEKFMEKMGINVVKRKLGAHDNLKLTITQEGNKHTVKESSNFRNIDVVFELGVDFAYSAADGTELTGTWTMEGNKLVGKFKRVDNGKELIAVREISGNELIQTYTYEGVEAKRIFKKE
modifications: PEPTIDE (1)...(131) wild-type rat intestinal fatty acid binding protein
B10: 47I2, L72A (protein, listed as Rattus norvegicus)
chain: AFDGTWKVDRNENYEKFMEKMGINVVKRKLGAHDNLKLTITQEGNKITVKESSNFRNIDVVFELGVDFAYSAADGTELTGTWTMEGNKLVGKFKRVDNGKELIAVREISGNELIQTYTYEGVEAKRIFKKE
modifications: PEPTIDE (1)...(131) wild-type rat intestinal fatty acid binding protein
B11: 47L2, L72A (protein, listed as Rattus norvegicus)
chain: AFDGTWKVDRNENYEKFMEKMGINVVKRKLGAHDNLKLTITQEGNKLTVKESSNFRNIDVVFELGVDFAYSAADGTELTGTWTMEGNKLVGKFKRVDNGKELIAVREISGNELIQTYTYEGVEAKRIFKKE
modifications: PEPTIDE (1)...(131) wild-type rat intestinal fatty acid binding protein
B12: 47M, 72A (protein, listed as Rattus norvegicus)
chain: AFDGTWKVDRNENYEKFMEKMGINVVKRKLGAHDNLKLTITQEGNKMTVKESSNFRNIDVVFELGVDFAYSAADGTELTGTWTMEGNKLVGKFKRVDNGKELIAVREISGNELIQTYTYEGVEAKRIFKKE
modifications: PEPTIDE (1)...(131) wild-type rat intestinal fatty acid binding protein
B13: 47P1, L72A (protein, listed as Rattus norvegicus)
chain: AFDGTWKVDRNENYEKFMEKMGINVVKRKLGAHDNLKLTITQEGNKPTVKESSNFRNIDVVFELGVDFAYSAADGTELTGTWTMEGNKLVGKFKRVDNGKELIAVREISGNELIQTYTYEGVEAKRIFKKE
modifications: PEPTIDE (1)...(131) wild-type rat intestinal fatty acid binding protein
B14: 47R3, L72A (protein, listed as Rattus norvegicus)
chain: AFDGTWKVDRNENYEKFMEKMGINVVKRKLGAHDNLKLTITQEGNKRTVKESSNFRNIDVVFELGVDFAYSAADGTELTGTWTMEGNKLVGKFKRVDNGKELIAVREISGNELIQTYTYEGVEAKRIFKKE
modifications: PEPTIDE (1)...(131) wild-type rat intestinal fatty acid binding protein
B15: 47S1, L72A (protein, listed as Rattus norvegicus)
chain: AFDGTWKVDRNENYEKFMEKMGINVVKRKLGAHDNLKLTITQEGNKSTVKESSNFRNIDVVFELGVDFAYSAADGTELTGTWTMEGNKLVGKFKRVDNGKELIAVREISGNELIQTYTYEGVEAKRIFKKE
modifications: PEPTIDE (1)...(131) wild-type rat intestinal fatty acid binding protein
B16: 47T1, L72A (protein, listed as Rattus norvegicus)
chain: AFDGTWKVDRNENYEKFMEKMGINVVKRKLGAHDNLKLTITQEGNKTTVKESSNFRNIDVVFELGVDFAYSAADGTELTGTWTMEGNKLVGKFKRVDNGKELIAVREISGNELIQTYTYEGVEAKRIFKKE
modifications: PEPTIDE (1)...(131) wild-type rat intestinal fatty acid binding protein
B17: 47V3, L72A (protein, listed as Rattus norvegicus)
chain: AFDGTWKVDRNENYEKFMEKMGINVVKRKLGAHDNLKLTITQEGNKVTVKESSNFRNIDVVFELGVDFAYSAADGTELTGTWTMEGNKLVGKFKRVDNGKELIAVREISGNELIQTYTYEGVEAKRIFKKE
modifications: PEPTIDE (1)...(131) wild-type rat intestinal fatty acid binding protein
B18: 47Y2, L72A (protein, listed as Rattus norvegicus)
chain: AFDGTWKVDRNENYEKFMEKMGINVVKRKLGAHDNLKLTITQEGNKYTVKESSNFRNIDVVFELGVDFAYSAADGTELTGTWTMEGNKLVGKFKRVDNGKELIAVREISGNELIQTYTYEGVEAKRIFKKE
modifications: PEPTIDE (1)...(131) wild-type rat intestinal fatty acid binding protein
B19: 49A1, 72A (protein, listed as Rattus norvegicus)
chain: AFDGTWKVDRNENYEKFMEKMGINVVKRKLGAHDNLKLTITQEGNKFTAKESSNFRNIDVVFELGVDFAYSAADGTELTGTWTMEGNKLVGKFKRVDNGKELIAVREISGNELIQTYTYEGVEAKRIFKKE
modifications: PEPTIDE (1)...(131) wild-type rat intestinal fatty acid binding protein
B20: 49C1, 72A (protein, listed as Rattus norvegicus)
chain: AFDGTWKVDRNENYEKFMEKMGINVVKRKLGAHDNLKLTITQEGNKFTCKESSNFRNIDVVFELGVDFAYSAADGTELTGTWTMEGNKLVGKFKRVDNGKELIAVREISGNELIQTYTYEGVEAKRIFKKE
modifications: PEPTIDE (1)...(131) wild-type rat intestinal fatty acid binding protein
B21: 102R, 72A (protein, listed as Rattus norvegicus)
chain: AFDGTWKVDRNENYEKFMEKMGINVVKRKLGAHDNLKLTITQEGNKFTVKESSNFRNIDVVFELGVDFAYSAADGTELTGTWTMEGNKLVGKFKRVDNGKERIAVREISGNELIQTYTYEGVEAKRIFKKE
modifications: PEPTIDE (1)...(131) wild-type rat intestinal fatty acid binding protein
B22: 102S, 72A (protein, listed as Rattus norvegicus)
chain: AFDGTWKVDRNENYEKFMEKMGINVVKRKLGAHDNLKLTITQEGNKFTVKESSNFRNIDVVFELGVDFAYSAADGTELTGTWTMEGNKLVGKFKRVDNGKESIAVREISGNELIQTYTYEGVEAKRIFKKE
modifications: PEPTIDE (1)...(131) wild-type rat intestinal fatty acid binding protein
B23: 102T, 72A (protein, listed as Rattus norvegicus)
chain: AFDGTWKVDRNENYEKFMEKMGINVVKRKLGAHDNLKLTITQEGNKFTVKESSNFRNIDVVFELGVDFAYSAADGTELTGTWTMEGNKLVGKFKRVDNGKETIAVREISGNELIQTYTYEGVEAKRIFKKE
modifications: PEPTIDE (1)...(131) wild-type rat intestinal fatty acid binding protein

Assay: Baseline fluorescence ratio Ro of probe in absence of analyte
Settings: average baseline fluorescence ratio Ro of the clone probe; substitutions with respect to SEQ ID NO: 2
B1 showed an AvgOfRo of 0.23. With B2 the AvgOfRo was 0.21. For B3, the AvgOfRo was 0.20. B4 gave an AvgOfRo of 0.21. In the case of B5, the AvgOfRo is reported as 0.22. With B6 the AvgOfRo was 0.29. For B7, the AvgOfRo was 0.24. Molecule B8 has an AvgOfRo of 0.18. Work on B9 yielded an AvgOfRo of 0.22. For B10, the AvgOfRo was 0.19. For B11, the AvgOfRo was 0.22. Work on B12 yielded an AvgOfRo of 0.23. B13 gave an AvgOfRo of 0.36. B14 gave an AvgOfRo of 0.33. Work on B15 yielded an AvgOfRo of 0.31. With B16 the AvgOfRo was 0.24. With B17 the AvgOfRo was 0.19. Molecule B18 has an AvgOfRo of 0.19. Molecule B19 has an AvgOfRo of 0.45. B20 showed an AvgOfRo of 0.29.

Same assay, conditions: baseline fluorescence ratio of probe, no fatty acid
Molecule B21 has an AvgOfRo of 0.33. For B12, the Ro was 0.225. With B22 the AvgOfRo was 0.24. Work on B23 yielded an AvgOfRo of 0.14.
